Values after ≈ are worked out from the molar mass of the structure shown. Further values from the same series stand in other lists.
Tested on: Escherichia coli
Experiment: minimum inhibitory concentration (MIC)
Description: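 Broth microdilution MIC (Sensititre BOPO7F bovine plate, CLSI methods) of 19 antimicrobials against field isolates of P. multocida, M. haemolytica, H. somni (deep nasopharyngeal swabs) and E. coli, Enterococcus spp. (rectal swabs) from weaned dairy heifers. Incubation 16-24 h at 35 C. MIC is the lowest concentration preventing visible growth. Values with <= or > lie at the tested range limits. Trimethoprim-sulfamethoxazole is given as the trimethoprim component of a 1:19 mixture.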

CN1C[C@@H]2C[C@H]1CN2c1cc2c(cc1F)c(=O)c(C(=O)O)cn2C1CC1 [Danofloxacin]
Details | minimum inhibitory concentration [µg/mL]
isolate (source animal id): 221 | ≤ 0.12
isolate (source animal id): 222 | ≤ 0.12
isolate (source animal id): 223 | 0.5 (≈ 1.4 µM)
isolate (source animal id): 224 | ≤ 0.12
isolate (source animal id): 225 | ≤ 0.12
isolate (source animal id): 226 | > 1
isolate (source animal id): 227 | > 1
isolate (source animal id): 228 | ≤ 0.12
isolate (source animal id): 229 | > 1
isolate (source animal id): 230 | 0.5 (≈ 1.4 µM)
isolate (source animal id): 231 | 0.5 (≈ 1.4 µM)
isolate (source animal id): 232 | 0.5 (≈ 1.4 µM)
isolate (source animal id): 233 | ≤ 0.12
isolate (source animal id): 234 | ≤ 0.12
isolate (source animal id): 235 | 0.5 (≈ 1.4 µM)
isolate (source animal id): 236 | ≤ 0.12
isolate (source animal id): 237 | ≤ 0.12
isolate (source animal id): 238 | ≤ 0.12
isolate (source animal id): 239 | ≤ 0.12
isolate (source animal id): 240 | ≤ 0.12
isolate (source animal id): 241 | ≤ 0.12
isolate (source animal id): 242 | ≤ 0.12
isolate (source animal id): 243 | ≤ 0.12
isolate (source animal id): 244 | ≤ 0.12
isolate (source animal id): 245 | ≤ 0.12
isolate (source animal id): 246 | > 1
isolate (source animal id): 247 | ≤ 0.12
isolate (source animal id): 248 | ≤ 0.12
isolate (source animal id): 249 | ≤ 0.12
isolate (source animal id): 250 | ≤ 0.12
isolate (source animal id): 251 | ≤ 0.12
isolate (source animal id): 252 | ≤ 0.12
isolate (source animal id): 253 | ≤ 0.12
isolate (source animal id): 254 | ≤ 0.12
isolate (source animal id): 255 | ≤ 0.12
isolate (source animal id): 256 | ≤ 0.12
isolate (source animal id): 257 | ≤ 0.12
isolate (source animal id): 258 | ≤ 0.12
isolate (source animal id): 259 | > 1
isolate (source animal id): 260 | ≤ 0.12
isolate (source animal id): 261 | ≤ 0.12
isolate (source animal id): 262 | 1 (≈ 2.8 µM)
isolate (source animal id): 263 | ≤ 0.12
isolate (source animal id): 264 | ≤ 0.12
isolate (source animal id): 265 | ≤ 0.12
isolate (source animal id): 266 | ≤ 0.12
isolate (source animal id): 267 | ≤ 0.12
isolate (source animal id): 268 | ≤ 0.12
isolate (source animal id): 269 | ≤ 0.12
isolate (source animal id): 270 | ≤ 0.12
isolate (source animal id): 271 | ≤ 0.12
isolate (source animal id): 272 | ≤ 0.12
isolate (source animal id): 273 | ≤ 0.12
isolate (source animal id): 274 | > 1
isolate (source animal id): 275 | 0.25 (≈ 0.7 µM)
isolate (source animal id): 276 | ≤ 0.12
isolate (source animal id): 277 | ≤ 0.12
isolate (source animal id): 278 | ≤ 0.12
isolate (source animal id): 279 | ≤ 0.12
isolate (source animal id): 280 | ≤ 0.12
isolate (source animal id): 281 | 0.25 (≈ 0.7 µM)
isolate (source animal id): 282 | ≤ 0.12
isolate (source animal id): 283 | ≤ 0.12
isolate (source animal id): 284 | ≤ 0.12
isolate (source animal id): 285 | ≤ 0.12
isolate (source animal id): 286 | ≤ 0.12
isolate (source animal id): 287 | ≤ 0.12
isolate (source animal id): 288 | ≤ 0.12
isolate (source animal id): 289 | ≤ 0.12
isolate (source animal id): 290 | ≤ 0.12
isolate (source animal id): 291 | ≤ 0.12
isolate (source animal id): 292 | ≤ 0.12
isolate (source animal id): 293 | ≤ 0.12
isolate (source animal id): 294 | ≤ 0.12
isolate (source animal id): 295 | 0.25 (≈ 0.7 µM)
isolate (source animal id): 296 | ≤ 0.12
isolate (source animal id): 297 | ≤ 0.12
isolate (source animal id): 298 | ≤ 0.12
isolate (source animal id): 299 | ≤ 0.12
isolate (source animal id): 300 | ≤ 0.12
isolate (source animal id): 301 | ≤ 0.12
isolate (source animal id): 302 | ≤ 0.12
isolate (source animal id): 303 | ≤ 0.12
isolate (source animal id): 304 | ≤ 0.12
isolate (source animal id): 305 | ≤ 0.12
isolate (source animal id): 306 | ≤ 0.12
isolate (source animal id): 307 | ≤ 0.12
isolate (source animal id): 308 | ≤ 0.12
isolate (source animal id): 309 | ≤ 0.12
isolate (source animal id): 310 | ≤ 0.12
isolate (source animal id): 311 | ≤ 0.12
isolate (source animal id): 312 | ≤ 0.12
isolate (source animal id): 313 | ≤ 0.12
isolate (source animal id): 314 | ≤ 0.12
isolate (source animal id): 315 | 0.25 (≈ 0.7 µM)
isolate (source animal id): 316 | ≤ 0.12
isolate (source animal id): 317 | 0.5 (≈ 1.4 µM)
isolate (source animal id): 318 | ≤ 0.12
isolate (source animal id): 319 | ≤ 0.12
isolate (source animal id): 320 | ≤ 0.12
isolate (source animal id): 321 | ≤ 0.12
isolate (source animal id): 322 | ≤ 0.12
isolate (source animal id): 323 | ≤ 0.12
isolate (source animal id): 324 | ≤ 0.12
isolate (source animal id): 325 | ≤ 0.12
isolate (source animal id): 326 | ≤ 0.12
isolate (source animal id): 327 | ≤ 0.12
isolate (source animal id): 328 | ≤ 0.12
isolate (source animal id): 329 | ≤ 0.12
isolate (source animal id): 330 | ≤ 0.12
isolate (source animal id): 331 | 1 (≈ 2.8 µM)
isolate (source animal id): 332 | ≤ 0.12
isolate (source animal id): 333 | ≤ 0.12
isolate (source animal id): 334 | ≤ 0.12
isolate (source animal id): 335 | ≤ 0.12
isolate (source animal id): 336 | ≤ 0.12
isolate (source animal id): 337 | 1 (≈ 2.8 µM)
isolate (source animal id): 338 | 0.25 (≈ 0.7 µM)
isolate (source animal id): 339 | ≤ 0.12
isolate (source animal id): 340 | ≤ 0.12
isolate (source animal id): 341 | ≤ 0.12
